{"sequences": {"note": "Amino acid sequences for entries named in this document (tags omitted).", "UniProt Q61188, whole entry": "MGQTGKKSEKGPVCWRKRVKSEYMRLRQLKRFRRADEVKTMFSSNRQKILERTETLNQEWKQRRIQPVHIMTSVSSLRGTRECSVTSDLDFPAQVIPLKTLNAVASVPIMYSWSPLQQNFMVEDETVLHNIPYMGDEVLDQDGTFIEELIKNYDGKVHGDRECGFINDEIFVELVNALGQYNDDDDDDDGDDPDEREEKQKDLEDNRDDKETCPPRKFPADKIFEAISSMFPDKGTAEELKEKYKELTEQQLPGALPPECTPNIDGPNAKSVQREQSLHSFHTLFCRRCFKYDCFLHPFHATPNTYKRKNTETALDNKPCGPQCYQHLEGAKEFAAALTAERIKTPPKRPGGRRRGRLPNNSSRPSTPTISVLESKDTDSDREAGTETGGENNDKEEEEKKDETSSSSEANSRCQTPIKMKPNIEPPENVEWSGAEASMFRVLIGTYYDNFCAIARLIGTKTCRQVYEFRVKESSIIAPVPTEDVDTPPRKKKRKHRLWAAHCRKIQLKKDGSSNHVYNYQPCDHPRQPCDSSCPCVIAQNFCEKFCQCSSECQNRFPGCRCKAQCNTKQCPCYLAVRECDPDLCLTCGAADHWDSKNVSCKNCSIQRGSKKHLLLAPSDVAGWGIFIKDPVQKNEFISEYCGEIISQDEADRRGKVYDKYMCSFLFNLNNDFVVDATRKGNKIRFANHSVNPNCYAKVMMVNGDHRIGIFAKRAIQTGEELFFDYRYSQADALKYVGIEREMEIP"}, "source": "ChEMBL document CHEMBL5674883", "about": "“The Heterochromatin Landscape in Migrating Cells and the Importance of H3K27me3 for Associated Transcriptome Alterations” (Cells, 2018)", "assay_type_in_all_cases": "cell-based", "key": {"[1]": {"target": "Histone-lysine N-methyltransferase EZH2 (Mus musculus) (UniProt Q61188)", "experiment": "Inhibition of EZH2 in mouse B16-F1 migrating cells assessed as fold change in H3K27me3-buffered regulated Adam19-mRNA expression at 3 uM measured by ChIP-seq analysis relative to control cells"}, "[2]": {"target": "Histone-lysine N-methyltransferase EZH2 (Mus musculus) (UniProt Q61188)", "experiment": "Inhibition of EZH2 in mouse B16-F1 migrating cells assessed as fold change in H3K27me3-buffered regulated Avpi1-mRNA expression at 3 uM measured by ChIP-seq analysis relative to control cells"}, "[3]": {"target": "Histone-lysine N-methyltransferase EZH2 (Mus musculus) (UniProt Q61188)", "experiment": "Inhibition of EZH2 in mouse B16-F1 migrating cells assessed as fold change in H3K27me3-buffered regulated Slc6a17-mRNA expression at 3 uM measured by ChIP-seq analysis relative to control cells"}, "[4]": {"target": "Histone-lysine N-methyltransferase EZH2 (Mus musculus) (UniProt Q61188)", "experiment": "Inhibition of EZH2 in mouse B16-F1 migrating cells assessed as fold change in H3K27me3-independent regulated Zfp292-mRNA expression at 3 uM measured by ChIP-seq analysis relative to control cells"}, "[5]": {"target": "Histone-lysine N-methyltransferase EZH2 (Mus musculus) (UniProt Q61188)", "experiment": "Inhibition of EZH2 in mouse B16-F1 migrating cells assessed as fold change in H3K27me3-buffered regulated Rnaset2b-mRNA expression at 3 uM measured by ChIP-seq analysis relative to control cells"}, "[6]": {"target": "Histone-lysine N-methyltransferase EZH2 (Mus musculus) (UniProt Q61188)", "experiment": "Inhibition of EZH2 in mouse B16-F1 migrating cells assessed as fold change in H3K27me3-buffered regulated Gsn-mRNA expression at 3 uM measured by ChIP-seq analysis relative to control cells"}, "[7]": {"target": "Histone-lysine N-methyltransferase EZH2 (Mus musculus) (UniProt Q61188)", "experiment": "Inhibition of EZH2 in mouse B16-F1 migrating cells assessed as fold change in H3K27me3-buffered regulated Kank4-mRNA expression at 3 uM measured by ChIP-seq analysis relative to control cells"}, "[8]": {"target": "Histone-lysine N-methyltransferase EZH2 (Mus musculus) (UniProt Q61188)", "experiment": "Inhibition of EZH2 in mouse B16-F1 migrating cells assessed as fold change in H3K27me3-independent regulated Prss46-mRNA expression at 3 uM measured by ChIP-seq analysis relative to control cells"}, "[9]": {"target": "Histone-lysine N-methyltransferase EZH2 (Mus musculus) (UniProt Q61188)", "experiment": "Inhibition of EZH2 in mouse B16-F1 migrating cells assessed as fold change in H3K27me3-buffered regulated Dclk1-mRNA expression at 3 uM measured by ChIP-seq analysis relative to control cells"}, "[10]": {"target": "Histone-lysine N-methyltransferase EZH2 (Mus musculus) (UniProt Q61188)", "experiment": "Inhibition of EZH2 in mouse B16-F1 migrating cells assessed as fold change in H3K27me3-buffered regulated Rad51ap1-mRNA expression at 3 uM measured by ChIP-seq analysis relative to control cells"}, "[11]": {"target": "T1, RNA polymerase II (Mus musculus) (UniProt P08775+Q8CFI7+P97760+A0A3Q4L2S8+Q80UW8+P61219+P62488+Q923G2+P60898+O08740+Q63871+P62876)", "experiment": "Inhibition of RNA polymerase II in mouse B16-F1 migrating cells assessed as fold change in P4hb-RNA stability at 0.1 mM measured by ChIP-seq analysis relative to control cells"}, "[12]": {"target": "T1, RNA polymerase II (Mus musculus)", "experiment": "Inhibition of RNA polymerase II in mouse B16-F1 migrating cells assessed as fold change in Rps10-RNA stability at 0.1 mM measured by ChIP-seq analysis relative to control cells"}, "[13]": {"target": "T1, RNA polymerase II (Mus musculus)", "experiment": "Inhibition of RNA polymerase II in mouse B16-F1 migrating cells assessed as fold change in Trappc4-RNA stability at 0.1 mM measured by ChIP-seq analysis relative to control cells"}, "[14]": {"target": "T1, RNA polymerase II (Mus musculus)", "experiment": "Inhibition of RNA polymerase II in mouse B16-F1 migrating cells assessed as fold change in Dhx36-RNA stability at 0.1 mM measured by ChIP-seq analysis relative to control cells"}, "[15]": {"target": "T1, RNA polymerase II (Mus musculus)", "experiment": "Inhibition of RNA polymerase II in mouse B16-F1 migrating cells assessed as fold change in Dnajc3-RNA stability at 0.1 mM measured by ChIP-seq analysis relative to control cells"}, "[16]": {"target": "T1, RNA polymerase II (Mus musculus)", "experiment": "Inhibition of RNA polymerase II in mouse B16-F1 migrating cells assessed as fold change in Zranb2-RNA stability at 0.1 mM measured by ChIP-seq analysis relative to control cells"}, "[17]": {"target": "T1, RNA polymerase II (Mus musculus)", "experiment": "Inhibition of RNA polymerase II in mouse B16-F1 migrating cells assessed as fold change in Abhd8-RNA stability at 0.1 mM measured by ChIP-seq analysis relative to control cells"}, "[18]": {"target": "T1, RNA polymerase II (Mus musculus)", "experiment": "Inhibition of RNA polymerase II in mouse B16-F1 migrating cells assessed as fold change in Rbm15b-RNA stability at 0.1 mM measured by ChIP-seq analysis relative to control cells"}, "[19]": {"target": "T1, RNA polymerase II (Mus musculus)", "experiment": "Inhibition of RNA polymerase II in mouse B16-F1 migrating cells assessed as fold change in Smc3-RNA stability at 0.1 mM measured by ChIP-seq analysis relative to control cells"}, "[20]": {"target": "T1, RNA polymerase II (Mus musculus)", "experiment": "Inhibition of RNA polymerase II in mouse B16-F1 migrating cells assessed as fold change in Ppp1cb-RNA stability at 0.1 mM measured by ChIP-seq analysis relative to control cells"}, "[21]": {"target": "T1, RNA polymerase II (Mus musculus)", "experiment": "Inhibition of RNA polymerase II in mouse B16-F1 migrating cells assessed as fold change in Nom1-RNA stability at 0.1 mM measured by ChIP-seq analysis relative to control cells"}, "[22]": {"target": "T1, RNA polymerase II (Mus musculus)", "experiment": "Inhibition of RNA polymerase II in mouse B16-F1 migrating cells assessed as fold change in Cops2-RNA stability at 0.1 mM measured by ChIP-seq analysis relative to control cells"}, "[23]": {"target": "T1, RNA polymerase II (Mus musculus)", "experiment": "Inhibition of RNA polymerase II in mouse B16-F1 migrating cells assessed as fold change in Nucks1-RNA stability at 0.1 mM measured by ChIP-seq analysis relative to control cells"}, "[24]": {"target": "T1, RNA polymerase II (Mus musculus)", "experiment": "Inhibition of RNA polymerase II in mouse B16-F1 migrating cells assessed as fold change in Gabarap-RNA stability at 0.1 mM measured by ChIP-seq analysis relative to control cells"}, "[25]": {"target": "T1, RNA polymerase II (Mus musculus)", "experiment": "Inhibition of RNA polymerase II in mouse B16-F1 migrating cells assessed as fold change in Nxt2-RNA stability at 0.1 mM measured by ChIP-seq analysis relative to control cells"}, "[26]": {"target": "T1, RNA polymerase II (Mus musculus)", "experiment": "Inhibition of RNA polymerase II in mouse B16-F1 migrating cells assessed as fold change in Cnot6l-RNA stability at 0.1 mM measured by ChIP-seq analysis relative to control cells"}, "[27]": {"target": "T1, RNA polymerase II (Mus musculus)", "experiment": "Inhibition of RNA polymerase II in mouse B16-F1 migrating cells assessed as fold change in Fkbp2-RNA stability at 0.1 mM measured by ChIP-seq analysis relative to control cells"}, "[28]": {"target": "T1, RNA polymerase II (Mus musculus)", "experiment": "Inhibition of RNA polymerase II in mouse B16-F1 migrating cells assessed as fold change in Herc4-RNA stability at 0.1 mM measured by ChIP-seq analysis relative to control cells"}, "[29]": {"target": "T1, RNA polymerase II (Mus musculus)", "experiment": "Inhibition of RNA polymerase II in mouse B16-F1 migrating cells assessed as fold change in Ugcg-RNA stability at 0.1 mM measured by ChIP-seq analysis relative to control cells"}, "[30]": {"target": "T1, RNA polymerase II (Mus musculus)", "experiment": "Inhibition of RNA polymerase II in mouse B16-F1 migrating cells assessed as fold change in B3gat3-RNA stability at 0.1 mM measured by ChIP-seq analysis relative to control cells"}}, "note": "The source gives many values for each of these; only a part stands here.", "data": [{"compound": "CCCc1cc(C)[nH]c(=O)c1CNC(=O)c1cc(-c2ccnc(N3CCN(C)CC3)c2)cc2c1cnn2C(C)C", "values": [{"measurement": "log2FC", "setting": "[1]", "result": -0.52}, {"measurement": "log2FC", "setting": "[2]", "result": 0.71}, {"measurement": "log2FC", "setting": "[3]", "result": 0.69}, {"measurement": "log2FC", "setting": "[4]", "result": -0.53}, {"measurement": "log2FC", "setting": "[5]", "result": 0.39}, {"measurement": "log2FC", "setting": "[6]", "result": 0.42}, {"measurement": "log2FC", "setting": "[7]", "result": -0.47}, {"measurement": "log2FC", "setting": "[8]", "result": 1.38}, {"measurement": "log2FC", "setting": "[9]", "result": 0.38}, {"measurement": "log2FC", "setting": "[10]", "result": -0.49}]}, {"compound": "OC[C@H]1O[C@@H](n2cnc3cc(Cl)c(Cl)cc32)[C@H](O)[C@@H]1O", "values": [{"measurement": "log2FC", "setting": "[11]", "result": 0.44}, {"measurement": "log2FC", "setting": "[12]", "result": 0.4}, {"measurement": "log2FC", "setting": "[13]", "result": 0.4}, {"measurement": "log2FC", "setting": "[14]", "result": -0.63}, {"measurement": "log2FC", "setting": "[15]", "result": -0.42}, {"measurement": "log2FC", "setting": "[16]", "result": -0.66}, {"measurement": "log2FC", "setting": "[17]", "result": 0.41}, {"measurement": "log2FC", "setting": "[18]", "result": -0.46}, {"measurement": "log2FC", "setting": "[19]", "result": -0.66}, {"measurement": "log2FC", "setting": "[20]", "result": -0.51}, {"measurement": "log2FC", "setting": "[21]", "result": -0.53}, {"measurement": "log2FC", "setting": "[22]", "result": -0.8}, {"measurement": "log2FC", "setting": "[23]", "result": -0.58}, {"measurement": "log2FC", "setting": "[24]", "result": 0.53}, {"measurement": "log2FC", "setting": "[25]", "result": -0.81}, {"measurement": "log2FC", "setting": "[26]", "result": -0.6}, {"measurement": "log2FC", "setting": "[27]", "result": 0.47}, {"measurement": "log2FC", "setting": "[28]", "result": -0.56}, {"measurement": "log2FC", "setting": "[29]", "result": -0.74}, {"measurement": "log2FC", "setting": "[30]", "result": 0.5}]}]}
